Counter-ions that a name gives are not always drawn. Some of the results follow. Single values of this set are uncertain.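 Yeast growth was read as optical density at 600 nm. The two-hybrid strains grew without histidine, so growth needed the Pex3–Pex19 binding; a compound counted as trypanosome-selective if it cut growth of the trypanosome-pair strain by more than 65% and the human-pair strain by less than 65%.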
How the values were obtained:
[1] = test system: Saccharomyces cerevisiae HF7c pdr5Δ; assay: general growth inhibition of yeast HF7c pdr5Δ in -Leu -Trp medium, relative to DMSO; higher = stronger general growth inhibition; settings: 100 µM; 24 h
[2] = test system: human PEX3-PEX19 interaction (yeast two-hybrid); assay: growth inhibition of yeast two-hybrid strain reporting HsPex3-HsPex19 interaction, relative to DMSO; higher = stronger inhibition of human Pex3-Pex19 interaction / growth; settings: 100 µM; 24 h; 3-aminotriazole 10 mM
[3] = test system: T. brucei Pex3-Pex19 interaction (yeast two-hybrid); assay: growth inhibition of yeast two-hybrid strain reporting TbPex3-TbPex19 interaction, relative to DMSO; higher = stronger inhibition of T. brucei Pex3-Pex19 interaction / growth; settings: 100 µM; 24 h

Row | SMILES | general growth inhibition [1] | growth inhibition [2] | growth inhibition [3]
1 | Cc1cc(C(C)(C)C)c(O)c(C)c1CC1=NCCN1 [Oxymetazoline hydrochloride] | 49.7% | 46.6% | 65.1%
2 | O=c1c(O)c(-c2ccc(O)c(O)c2)oc2cc(O)cc(O)c12 [Quercetin dihydrate] | 37.2% | 33.3% | 59%
3 | CC1=C(C(=O)O)N2C(=O)[C@@H](NC(=O)[C@H](N)C3=CCC=CC3)[C@H]2SC1 [Cephradine] | 53% | 44.6% | 62.5%
4 | C[N+]1(C)CCC(OC(=O)C(c2ccccc2)c2ccccc2)CC1 | 50.6% | 48.2% | 56.5%
5 | CN(C)CCC=C1c2ccccc2CCc2ccccc21 [Amitriptyline hydrochloride] | 37.1% | 44.1% | 64.5%
6 | CN(C)CCOC(=O)COc1ccc(Cl)cc1 [Centrophenoxine hydrochloride] | 50.6% | 40% | 56.7%
7 | CCN(CC)CCOC(=O)c1cc(Cl)c(N)cc1OC [SDZ-205,557 hydrochloride] | 55.6% | 53.9% | 60%
8 | CC[N+](CC)(CC)CC(=O)Nc1c(C)cccc1C [Lidocaine N-ethyl bromide quaternary salt] | 54.3% | 46.4% | 76.1%
9 | S=C(S)OC1CC2CC1C1CCCC21 [D-609 potassium] | 88.4% | 78.3% | 78.2%
10 | CC(C)(C=O)Cc1cc(C(C)(C)C)c(O)c(C(C)(C)C)c1 | 59.8% | 38% | 50.5%
11 | COC(=O)C1=CO[C@@H](O)[C@@H]2C(CO)=CC[C@H]12 [Genipin] | 32.9% | 14.6% | 58%
12 | Nc1nccc2c1ncn2[C@@H]1O[C@H](CO)[C@@H](O)[C@H]1O [3-deazaadenosine] | 34% | 35.7% | 58.1%
13 | CC[C@H](C)C(=O)O[C@H]1CCC=C2C=C[C@H](C)[C@H](CC[C@@H]3C[C@@H](O)CC(=O)O3)[C@H]21 [Mevastatin] | 63.9% | 50.4% | 64%
14 | O=c1ccn([C@@H]2O[C@H](COP(=O)(O)OP(=O)(O)O)[C@@H](O)[C@H]2O)c(=O)[nH]1 [Uridine 5'-diphosphate sodium] | 47.5% | 36.7% | 62.3%
15 | CCCCNc1ccc(C(=O)OCCN(C)C)cc1 [Tetracaine hydrochloride] | 41.7% | 33.5% | 57.6%
16 | NO [Hydroxylamine hydrochloride] | 4.94% | 5.32% | 34.9%
17 | CCN(CC)CCCC(C)Nc1ccnc2cc(Cl)ccc12 (stereo not drawn) [Chloroquine diphosphate] | 36.1% | 45.9% | 60.8%
18 | CCOC(=O)C1=C(C)NC(C)=C(C(=O)OC)C1c1cccc(Cl)c1Cl (stereo not drawn) [Felodipine] | 71.7% | 65.7% | 66.6%
19 | S=C(S)N1CCCC1 [Ammonium pyrrolidinedithiocarbamate] | 90.3% | 86.5% | 83.3%
20 | CC[N+](CC)(CC)CC [Tetraethylammonium chloride] | 52.8% | 48.7% | 59.8%
21 | O=C1CCCC(=O)C1C(=O)c1ccc(C(F)(F)F)cc1[N+](=O)[O-] [Nitisinone] | 40.4% | 45.8% | 32.9%
22 | c1cc(CN2CCCCC2)cc(OCCCNc2nc3ccccc3s2)c1 | 46.8% | 44.9% | 61.4%

Row | SMILES | general growth inhibition [1] | growth inhibition [2] | growth inhibition [3]
23 | OC(CN1CCC(Cc2ccc(F)cc2)CC1)c1ccc(Cl)cc1 (stereo not drawn) [Eliprodil] | 22.4% | 18.8% | 46.3%
24 | CCCCNc1cc(C(=O)O)cc(S(N)(=O)=O)c1Oc1ccccc1 [Bumetanide] | 22.1% | 28.7% | 34.9%
25 | N.N.N.N.N.N.N.N.N.N.N.N.N.N.O.O.[Cl-].[Cl-].[Cl-].[Cl-].[Cl-].[Cl-].[Ru+4].[Ru+5].[Ru+5] [Ruthenium red] | 60.5% | 36.1% | 52.6%
26 | CN(C)CCCc1cc(C(=O)Nc2ccc(-c3ccncc3)cc2)ccc1O | 34.9% | 39.7% | 56.2%
27 | Cc1cccc(C2CN(C)CCc3c2cc(O)c(O)c3Cl)c1 (stereo not drawn) | 51.2% | 56.6% | 69.2%
28 | Cc1cc2c(cc1Cl)N(C(=O)Nc1cccc3ncccc13)CC2 | 34.3% | 26.4% | 40%
29 | NCCS [Cysteamine hydrochloride] | 52.9% | 41.1% | 72.4%
30 | CC[N+](CC)(CC)CCOc1ccc(/C=C/c2ccccc2)cc1 | 81% | 73.7% | 68.4%
31 | Cc1nc2n(c(=O)c1CCN1CCC(c3noc4cc(F)ccc34)CC1)CCCC2O (stereo not drawn) [Paliperidone] | 11.4% | 29.3% | 53.1%
32 | CNC(=O)[C@H]1O[C@@H](n2cnc3c(NCc4ccc(N)cc4)ncnc32)[C@H](O)[C@@H]1O | 45.2% | 39.8% | 57%
33 | COc1cc(OC)c(C=C2C(=O)Nc3ccccc32)c(OC)c1 | 60.5% | 30.3% | 61.3%
34 | O=c1c(-c2ccc(O)cc2)coc2cc(O)ccc12 [Daidzein] | 28.4% | 40.3% | 49.7%
35 | COc1ccccc1N1CCN(CCCCN2C(=O)c3ccccc3C2=O)CC1 [NAN-190 hydrobromide] | 5.15% | 9.85% | 35.3%
36 | CN1C(C(=O)Nc2ccccn2)=C(O)c2ccccc2S1(=O)=O [Piroxicam] | 44.5% | 35.1% | 51%
37 | COc1ccc(CCN(C)CCCC(C#N)(c2ccc(OC)c(OC)c2)C(C)C)cc1OC (racemic) [(±)-Verapamil hydrochloride] | 55.2% | 42% | 67.8%
38 | O=C(O)c1cccnc1C(=O)O [Quinolinic acid] | 59.1% | 24.1% | 65.9%
39 | O=C(c1cc(O)c(O)c([N+](=O)[O-])c1)c1ccccc1F | 63.8% | 56.8% | 74.8%
40 | CCCCCc1ccc(/C=C/C(=O)Nc2cc(Cl)ccc2C(=O)O)cc1 | 19.9% | 18% | 37.3%
41 | NC(=S)c1ccc[n+]([C@@H]2O[C@@H](COP(=O)([O-])OP(=O)(O)OC[C@H]3O[C@@H](n4cnc5c(N)ncnc54)C(OP(=O)(O)O)[C@H]3O)C(O)C2O)c1 (stereo partly drawn) [Thio-NADP sodium] | 46.9% | 46.9% | 56.8%
42 | CNCC[C@@H](Oc1ccccc1C)c1ccccc1 [Tomoxetine] | 42% | 38% | 56.5%
43 | N#Cc1cc2nc(O)c(O)nc2cc1[N+](=O)[O-] [CNQX disodium] | 39.9% | 37.6% | 59.3%
44 | Cc1ccc([N+](=O)[O-])cc1S(=O)(=O)N(C)C | 5.84% | 4.29% | 22.5%

Row | SMILES | general growth inhibition [1] | growth inhibition [2] | growth inhibition [3]
45 | O=C(O)C1=CCCN(CCON=C(c2ccccc2)c2ccccc2)C1 [NO-711 hydrochloride] | 5.21% | 7.63% | 37.4%
46 | CCN[C@H]1CN(CCCOC)S(=O)(=O)c2sc(S(N)(=O)=O)cc21 [Brinzolamide] | 54.5% | 58.5% | 58%
47 | C=C[C@@]1(C)CC(=O)[C@]2(O)[C@@]3(C)[C@@H](O)CCC(C)(C)[C@@H]3[C@H](O)[C@H](OC(C)=O)[C@@]2(C)O1 [Forskolin] | 35.3% | 40.9% | 51.5%
48 | Cc1[nH]c(=O)c(C#N)cc1-c1ccc2nccn2c1 [Olprinone hydrochloride] | 56.7% | 50.5% | 62.7%
49 | Cc1cc(Cn2cnc3c2C[C@@H](C(=O)O)N(C(=O)C(c2ccccc2)c2ccccc2)C3)ccc1N | 40% | 44.2% | 63%
50 | CN(C)CCC(c1ccc(Br)cc1)c1ccccn1 (racemic) [(±)-Brompheniramine maleate] | 26.2% | 30.8% | 52.8%
51 | Cc1cc(C)c(/C=C2\C(=O)Nc3ccccc32)[nH]1 | 46.2% | 26.8% | 46.5%
52 | CC1=C(C)C(=O)C(CCCCC#CCCCC#CCO)=C(C)C1=O | 77.2% | 64.3% | 67.6%
53 | CNC(=C[N+](=O)[O-])NCCSCc1ccc(CN(C)C)o1 [Ranitidine hydrochloride] | 51.9% | 49.6% | 62.8%
54 | O=c1[nH]c2cc(C(F)(F)F)ccc2n1-c1cc(C(F)(F)F)ccc1O | 63.5% | 49.4% | 48.7%
55 | N=C(N)NCCCCN [Agmatine sulfate] | 47.4% | 46.6% | 61.7%
56 | CCc1ccc(/C=C2/SC(=S)NC2=O)cc1 | 34.6% | 7.94% | 21.3%
57 | CNCCNS(=O)(=O)c1cccc2cnccc12 [H-8 dihydrochloride] | 47.7% | 41.3% | 61%
58 | C#CC(N)CCC(=O)O (stereo not drawn) [gamma-Acetylinic GABA] | 34.7% | 52.7% | 66.1%
59 | NC1CONC1=O (racemic) [DL-Cycloserine] | 49.3% | 31.3% | 66.7%
60 | CCOC(=O)C1=C[C@]2(CC)CCCN3CCc4c(n1c1ccccc41)[C@@H]32 [Vinpocetine] | 49.5% | 35.8% | 60.3%
61 | O=C(Nc1nc2ccccc2n1CCN1CCOCC1)c1cccc([N+](=O)[O-])c1 [IRAK-1/4 Inhibitor I] | 18.8% | -4.05% | 39.8%
62 | CCCCCCNC(=O)n1cc(F)c(=O)[nH]c1=O [Carmofur] | 76% | 53.8% | 67.3%
63 | CCCCCCCCCCCCCCCC(=O)OC[C@H](COP(=O)(O)OCCNC(=O)[C@H](C)NC(=O)CC[C@@H](NC(=O)[C@H](C)NC(=O)[C@@H](C)O[C@H]1[C@H](O)[C@@H](CO)OC(O)[C@@H]1NC(C)=O)C(N)=O)OC(=O)CCCCCCCCCCCCCCC (stereo partly drawn) [Mifamurtide] | 41.8% | 41.9% | 63.2%
64 | COc1cc(NS(C)(=O)=O)ccc1Nc1c2ccccc2nc2ccccc12 [Amsacrine hydrochloride] | 32.3% | 21.8% | 51.4%
65 | CCCCOC(=O)NS(=O)(=O)c1sc(CC(C)C)cc1-c1ccc(Cn2c(CC)nc3c(C)cc(C)nc32)cc1 | 43.6% | 11% | 48.5%
66 | O=C(O[C@@H]1C[C@@H]2C[C@H]3C[C@H](C1)N2CC3=O)c1c[nH]c2ccccc12 [Dolasetron mesylate hydrate] | 41.7% | 50.4% | 63.7%

Quoted from above: compounds 63–64
Row | SMILES | general growth inhibition [1] | growth inhibition [2] | growth inhibition [3]
63 | CCCCCCCCCCCCCCCC(=O)OC[C@H](COP(=O)(O)OCCNC(=O)[C@H](C)NC(=O)CC[C@@H](NC(=O)[C@H](C)NC(=O)[C@@H](C)O[C@H]1[C@H](O)[C@@H](CO)OC(O)[C@@H]1NC(C)=O)C(N)=O)OC(=O)CCCCCCCCCCCCCCC (stereo partly drawn) [Mifamurtide] | 41.8% | 41.9% | 63.2%
64 | COc1cc(NS(C)(=O)=O)ccc1Nc1c2ccccc2nc2ccccc12 [Amsacrine hydrochloride] | 32.3% | 21.8% | 51.4%

Reference: the supplement of paper PMC8326762, “A Small Molecule Inhibitor of Pex3–Pex19 Interaction Disrupts Glycosome Biogenesis and Causes Lethality in Trypanosoma brucei” (Frontiers in Cell and Developmental Biology, 2021)
